About 170 (0.05%) of roughly 340,000 compounds were called active. The inconclusive results got no clear call from the source; some entries with a clear call stand among them for comparison. Calls come from the whole dose curve; as a rule, active = well fitted inhibition curve with a large enough effect in the signal ratio, with a control signal flat (not every such curve was filed as active); inconclusive = small, poorly fitted or top-dose-only effect, or effect the other way, or a change in a side signal; inactive = flat fitted curve, though single readings scatter; the % refers to the signal ratio. Potencies beside an inconclusive call are fits to weak or partial responses and may not hold up.
Test: qHTS Assay to Find Inhibitors of Chronic Active B-Cell Receptor Signaling;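 for activity change, negative = inhibition: plate controls were basal doxycycline-induced cells for no effect and cells given 10 µM MG132 for full effect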
Settings: ABC-DLBCL IkBa-CBG/CBR reporter, luminescence ratio (green luciferase fused to IkBa over red control in TMD8 lymphoma cells), 4 h; activity change, negative = inhibition: at 46.1 µM (top of the series)
Outline: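 TMD8 ABC-DLBCL cells carrying doxycycline-inducible green luciferase fused to IkappaBalpha plus unfused red luciferase were exposed to compounds (up to 46 uM) for 4 hrs at 37C. Activity came from the overlap-corrected green/red luminescence ratio.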
With `CN(CC(=O)N1CCCCCC1)S(=O)(=O)c1ccc(F)cc1` the activity change, negative = inhibition was “inactive”.
In the case of `O=S(=O)(c1ccccc1)c1nc(-c2ccccc2)oc1N1CCCC1`, the activity change, negative = inhibition is reported as “inactive”.
For `c1ccc(C2=NNC(=NC3CC3)SC2)cc1`, the Potency was inconclusive: 35.5 µM [falling, single point].
In the case of `Cc1ccc(C)c(NC(=S)NNC(=O)c2csc(C)c2)c1`, the Potency is reported as inconclusive: 18.4 µM [falling, partial curve, poor fit].
For `Cc1cc(C(C)(C)C)oc1C(=O)OCC(=O)NC1CCCCC1`, the activity change, negative = inhibition was “inactive”.
For `COC(=O)C1=C(C)N(c2ccc(Cl)c(Cl)c2)C(=O)C1`, the activity change, negative = inhibition was inconclusive: 0.261%.
For `O=C1C=C(Nc2ccc(Cl)cc2)CC(c2ccco2)C1` (centres undefined), the Potency was inconclusive: 16.4 µM [falling, single point].
With `CS(=O)(=O)c1ccc2nc(NC(=O)c3ccc(Cl)cc3)sc2c1` the activity change, negative = inhibition was inconclusive: 7.2%.
For `Cc1cccc(NC(=O)c2ccccc2NC(=O)CCC(=O)O)c1`, the activity change, negative = inhibition was inconclusive: 4.82%.
With `COc1ccc(C(=O)N(CCc2ccccc2)Cc2ccccc2)cc1S(=O)(=O)N1CCOCC1` the activity change, negative = inhibition was “inactive”.
In the case of `CSc1cccc(NC(=O)CCCNC(=O)c2ccc(Cl)cc2)c1`, the activity change, negative = inhibition is reported as inconclusive: -18.5%.
With `COc1ccc(NC(=O)C2CC(=O)N/C(=N/N=C/c3ccco3)S2)cc1` (centres undefined) the activity change, negative = inhibition was “inactive”.
In the case of `CCCC(=O)Nc1nc(C)c(-c2csc(Nc3ccccc3OC)n2)s1`, the activity change, negative = inhibition is reported as “inactive”.
For `Clc1ccc2nc(N3CCCCC3)sc2c1`, the activity change, negative = inhibition was inconclusive: -0.471%.
For `Cc1ccccc1-c1nc2cc(N)ccc2o1`, the Potency was inconclusive: 1.26 µM [falling, partial curve, poor fit].
With `N/C(=N\OC(=O)Cc1ccc([N+](=O)[O-])cc1)c1cccc(Br)c1` the Potency was inconclusive: 11.2 µM [falling, partial curve].
In the case of `C/C(Cn1cnc([N+](=O)[O-])n1)=N/NC(=O)COc1ccccc1Cl`, the activity change, negative = inhibition is reported as inconclusive: 8.17%.
With `CN1C2CCC1CC(N(CCc1ccccc1)C(=O)c1ccc(Cl)cc1)C2` (centres undefined) the activity change, negative = inhibition was inconclusive: 1.26%.
For `CC(=O)n1nc(-c2ccc(Cl)cc2)nc1NCc1ccco1`, the activity change, negative = inhibition was inconclusive: 19.6%.
In the case of `COC(=O)c1sc2nc3c(cc2c1N)COC(C)(C)C3`, the activity change, negative = inhibition is reported as inconclusive: 23.7%.
With `CCC(=O)Nc1ccc(NC(=O)c2ccccc2)nc1` the Potency was inconclusive: 3.98 µM [falling, partial curve].
In the case of `CN(C)S(=O)(=O)c1ccc(Cl)c(NC(=O)COC(=O)CNC(=O)c2ccco2)c1`, the activity change, negative = inhibition is reported as inconclusive: 9.7%.
In the case of `O=C(Nc1ccc([N+](=O)[O-])cc1)Nc1ccc2c(c1)OCCO2`, the activity change, negative = inhibition is reported as inconclusive: 14.6%.
For `COc1ccc(NC(=O)c2ccc(C)cc2Cl)c([N+](=O)[O-])c1`, the activity change, negative = inhibition was inconclusive: 13.1%.
With `C/C(=N\OC(=O)c1ccc(F)cc1)c1sc(-c2ccccc2)nc1C` the activity change, negative = inhibition was inconclusive: 7.19%.
With `c1ccc(-c2nnc(CN3CCCc4ccccc43)o2)cc1` the Potency was inconclusive: 20.6 µM [falling, single point].
In the case of `O=C(Nc1ccncc1)c1ccc(NS(=O)(=O)c2ccc3[nH]c(=O)[nH]c3c2)cc1`, the activity change, negative = inhibition is reported as inconclusive: 8.45%.
In the case of `O=C(Sc1ccccc1)c1cccc(Cn2cc(C(F)(F)F)ccc2=O)c1`, the activity change, negative = inhibition is reported as inconclusive: -19.5%.
For `Cc1ccc(CNC(=O)c2ccc(NC(=O)N3CCSc4ncccc43)cc2)cc1`, the activity change, negative = inhibition was “inactive”.
In the case of `Cc1cc(=O)n2nc(N3CCC(C(=O)NCC(C)c4ccccc4)CC3)sc2n1` (centres undefined), the activity change, negative = inhibition is reported as inconclusive: -6.83%.
For `CC(=O)n1cc(/C=N/NC(N)=S)c2ccccc21`, the activity change, negative = inhibition was “inactive”.
For `Cc1ccc(-n2ncc3ccccc3c2=O)cc1Cl`, the activity change, negative = inhibition was “inactive”.
For `COc1ccc(CCNC(=O)c2csc3c2CCCC3)cc1OC`, the activity change, negative = inhibition was “inactive”.
For `Cc1nc(-c2ccccc2)nc2[nH]c(-c3ccccc3)cc(=O)c12`, the Potency was inconclusive: 0.013 µM [rising, full curve].
For `Cn1c(=O)oc2cc(S(=O)(=O)N3CCCC(C(=O)NC4CCCc5ccccc54)C3)ccc21` (centres undefined), the Potency was inconclusive: 4.61 µM [rising, full curve, poor fit].
With `COc1ccc(C(=O)N2CCCC(Nc3ccc(C)c(C)c3)C2)cc1F` (centres undefined) the activity change, negative = inhibition was inconclusive: -0.293%.
In the case of `Cc1ccc(NC(=O)C(=O)NCCN2CCN(S(C)(=O)=O)CC2)cc1`, the activity change, negative = inhibition is reported as inconclusive: 1.58%.
In the case of `O=c1cc(CN2CCN(c3ccc(F)cc3)CC2)nc2sccn12`, the activity change, negative = inhibition is reported as inconclusive: -8.29%.
In the case of `COc1ccc2c(c1)C(=O)[C@@H](O)[C@H](c1ccc(OC)c(Br)c1)O2`, the activity change, negative = inhibition is reported as “inactive”.
With `CCc1c(O)nc(SCc2ccccc2)n(C(C)CC)c1=O` (centres undefined) the activity change, negative = inhibition was inconclusive: 8.68%.
In the case of `COc1ccccc1NC(=O)COC(=O)CN1C(=O)C(=O)c2ccccc21`, the Potency is reported as inconclusive: 12.6 µM [falling, partial curve].
With `O=C(c1ccc(-c2cccc(Cl)c2Cl)o1)N1CCOCC1` the activity change, negative = inhibition was inconclusive: -9.74%.
For `COc1cc(NC(=O)C2=CC(c3cccs3)=NS(=O)(=O)N2C)cc(OC)c1OC`, the activity change, negative = inhibition was “inactive”.
In the case of `Cc1cccc(OCC(=O)OCC(=O)c2c(N)n(C)c(=O)n(C)c2=O)c1`, the activity change, negative = inhibition is reported as inconclusive: -185%.
For `O=C1NC(=O)/C(=C/c2ccccc2OCc2ccccc2)S1`, the activity change, negative = inhibition was inconclusive: -18.1%.
In the case of `Cn1c(=O)c([N+](=O)[O-])c(-n2cnc3ccccc32)c2ccccc21`, the activity change, negative = inhibition is reported as “inactive”.
With `NC1=NC[C@@H](CC2CCCCC2)N1CCc1cc(C(F)(F)F)cc(C(F)(F)F)c1` the activity change, negative = inhibition was “inactive”.
In the case of `CCOC(=O)c1c(N)sc2c1CCC1C(=O)N(C3CCCCC3)C(=O)C21` (centres undefined), the Potency is reported as inconclusive: 29.1 µM [falling, single point].
With `CCCn1nnnc1SCC(=O)NCc1ccc(OC)cc1` the activity change, negative = inhibition was inconclusive: 2.19%.
For `O=C1/C(=C/C=C/c2ccccc2)Oc2c1ccc(O)c2CN1CCN(CCO)CC1`, the Potency was inconclusive: 11.2 µM [falling, partial curve].
For `COc1ccc(OC)c(S(=O)(=O)NCc2ccc(N3CCN(C)CC3)cc2)c1`, the activity change, negative = inhibition was “inactive”.
With `Cc1ccccc1N1C(=O)c2ccccc2C1Nc1cccnc1` (centres undefined) the activity change, negative = inhibition was inconclusive: 1.51%.
In the case of `O=C(CCCl)Nc1nnc(SCC(=O)NC2CCCC2)s1`, the Potency is reported as inconclusive: 35.5 µM [falling, single point].
For `CCCCC1(C)OC(=O)C(=Cc2ccc(N(C)C)cc2)C(=O)O1` (centres undefined), the activity change, negative = inhibition was “inactive”.

Reference: PubChem BioAssay AID493014 (National Center for Advancing Translational Sciences (NCATS), 2011)
Potency is the fitted concentration of half-maximal effect.
